From patent US20080311076A1, “Morpholinylanilinoquinazoline Derivatives For Use As Antiviral Agents” (ARROW THERAPEUTICS LIMITED, priority 2004, published 2008)
At least one compound was matched to its structure with a doubt left.

System: HCV replicon cells Huh 9B
Assay: HCV replicon assay (luciferase) in Huh 9B replicon cells
Format: cell-based
Conditions: concentration reducing replicon level (luciferase activity) by 50% vs untreated cell control; 72 h incubation
Protocol: HCV replicon cells Huh 9B (ReBlikon), containing the firefly luciferase—ubiquitin—neomycin phosphotransferase fusion protein and EMCV-IRES driven HCV polyprotein with cell culture adaptive mutations.
Cells were cultured at 37° C. in a 5% CO2 environment and split twice a week on seeding at 2×10E6 cells/flask on day 1 and 1×10E6 3 days later. Some 0.25 mg/ml G418 was added to the culture medium (125 ul per 25 ml) but not the assay medium.
The culture medium consisted of DMEM with […] glucose and glutamax (Gibco 61965-026) supplemented with 1× non-essential amino acids, penicillin (100 IU/ml)/streptomycin (100 μg/ml), FCS (10%, 50 ml) and 1 mg/ml G418 (Invitrogen cat no 10131-027) & 10% foetal calf serum.
A flask of cells was trypsinised and a cell count carried out. Cells were diluted to 100,000 cells/ml and 100 μl of this used to seed one opaque white 96-well plate (for the replicon assay) and one flat-bottomed clear plate (for the tox assay) for every seven compounds to be tested for IC50. Wells G12 and H12 were left empty in the clear plate as the blank. Plates were then incubated at 37° C. in a 5% CO2 environment for 24 h.
On the following day compound dilutions are made up in medium at twice their desired final concentration in a clear round bottomed plate. All dilutions have a final DMSO concentration of 1%. […]

SMILES	IC50 [µM]
FC(F)(F)Oc1ccc2ncnc(Nc3ccc(N4CCOCC4)cc3)c2c1 [Example 4, (6-trifluoromethoxy-quinazolinyl-4-yl)-(4-morpholin-4-yl-phenyl)-amine]	< 25
O=S1(=O)CCN(Cc2ccc(-c3ccc4ncnc(Nc5ccc(N6CCOCC6)cc5)c4c3)o2)CC1 [Example 10, {6-[5-(1,1-Dioxo-1-λ-6-thiomorpholin-4-ylmethyl)-furan-2-yl]-quinazolin-4-yl}-(4-morpholin-4-yl-phenyl)-amine]	< 5
